Measured values from PubChem BioAssay AID540256 (National Center for Advancing Translational Sciences (NCATS), 2011).
About 3,700 (1.2%) of roughly 300,000 compounds were called active. This list was built around the results that the source calls inconclusive (neither active nor inactive); the mix of calls is not that of the screen. Calls come from the whole dose curve; tested in HEK293 cells. Potencies beside an inconclusive call are fits to weak or partial responses and may not hold up.

Experiment: qHTS for Inhibitors of binding or entry into cells for Lassa Virus; note: nearly all actives have a fitted effect of over 50% in size
Details: Lassa virus pseudotype entry inhibition, cell reporter; activity change, negative = inhibition: at 37.9 µM (top of the series) unless noted
% is set by controls: 0 for no effect and ±100 for the full control effect; potency is the fitted concentration of half-maximal effect.

SMILES | Potency | activity change, negative = inhibition
NC1(C(=O)O)CCCc2ccc(N(CCCl)CCCl)cc21 (stereo unspecified) | inconclusive: 7.94 µM [inhibitor, partial curve, poor fit] | –
Cc1ccc(-n2cc(CNC(C)Cc3cnccn3)c(-c3cccc(C)c3)n2)cc1 (stereo unspecified) | inconclusive: 11.2 µM [inhibitor, partial curve, poor fit] | –
Cc1ccc(NC(=O)NC(=O)N(C2CCCCC2)S(=O)(=O)c2ccccc2)cc1 | inconclusive: 23.1 µM [activator, partial curve, poor fit] | –
CN(C)c1ccc(-c2nn3c(-c4ccccc4Cl)nnc3s2)cc1 | inconclusive: 11.2 µM [inhibitor, partial curve, poor fit] | –
CCOc1ccc(N2C(=O)C(CC(=O)Nc3ccccc3)N(Cc3ccccn3)C2=S)cc1 (stereo unspecified) | inconclusive: 11.2 µM [inhibitor, partial curve, poor fit] | –
OC1(c2ccc(Cl)c(Cl)c2)C[n+]2ccccc2N1Cc1ccccc1 (stereo unspecified) | inconclusive: 6.31 µM [activator, partial curve, poor fit] | –
O=C(OCc1cc(=O)n2nc(C3CC3)sc2n1)c1ccc(NC(=O)c2ccccc2F)cc1 | inactive | –
COc1cc(OC)cc(Oc2ccc(S(=O)(=O)N3CCCCC3)cc2[N+](=O)[O-])c1 | inconclusive: 0.73 µM [inhibitor, partial curve, poor fit] | –
CC(=O)c1cc(-c2ccc(F)cc2)n(CCC(=O)Nc2nc3ccc(C)cc3s2)c1C | inconclusive: 1.41 µM [inhibitor, full curve, poor fit] | –
Cc1cccc(CNC(=O)CN2C(=O)CSc3c2c(C)nn3-c2ccccc2)c1 | inactive | –
CCOC(=O)c1cnc2ccc(OCC)cc2c1Nc1ccc(OCc2ccccc2Cl)cc1 | inactive | –
O=C(O)CCC(=O)Nc1ccccc1C(=O)NC1CCCCC1 | inactive | –
C=CCC1(CC=C)CCCN1C(=O)C1CCC(=O)N(CCc2ccccc2)C1 (stereo unspecified) | inconclusive: 0.316 µM [inhibitor, partial curve, poor fit] | –
Cc1cc(Cl)ccc1C(=O)C1CCCN(C(=O)c2ccoc2)C1 (stereo unspecified) | inconclusive: 12.6 µM [inhibitor, partial curve, poor fit] | –
CCOc1ccc(N(CC(=O)N/N=C/c2ccc(OC(C)C)cc2)S(C)(=O)=O)cc1 | inactive | –
Cc1ccc(S(=O)(=O)N2CCCCC2)cc1C(=O)Nc1ccccn1 | inactive | –
CCN(c1ccccc1)S(=O)(=O)c1ccc(NC(=O)c2nc(SC(C)C)ncc2Cl)cc1 | inconclusive: 2.82 µM [inhibitor, partial curve, poor fit] | –
CCOC(=O)Nc1sc2c(c1C#N)CCCC2 | inactive | –
Cc1cccc(Oc2sc(C(=O)c3ccccc3)c(N)c2C#N)c1C | inconclusive: 1.26 µM [inhibitor, full curve] | –
Cc1nc2ccc(NC3=NCCCCC3)cc2s1 | inconclusive: 0.58 µM [inhibitor, partial curve] | –
Cc1ccc(O)c(-c2n[nH]c3c2C(c2ccc(F)cc2)N(Cc2ccco2)C3=O)c1 (stereo unspecified) | inconclusive: 3.98 µM [inhibitor, full curve] | –

Sorted by number of heavy atoms (high to low): part of the list above.
SMILES | Potency | activity change, negative = inhibition
O=C(OCc1cc(=O)n2nc(C3CC3)sc2n1)c1ccc(NC(=O)c2ccccc2F)cc1 | inactive | –
COc1cc(OC)cc(Oc2ccc(S(=O)(=O)N3CCCCC3)cc2[N+](=O)[O-])c1 | inconclusive: 0.73 µM [inhibitor, partial curve, poor fit] | –
C=CCC1(CC=C)CCCN1C(=O)C1CCC(=O)N(CCc2ccccc2)C1 (stereo unspecified) | inconclusive: 0.316 µM [inhibitor, partial curve, poor fit] | –

Carrying on.

SMILES | Potency | activity change, negative = inhibition
COCC(=O)c1[nH]c2ccccc2c1C | inactive | –
O=C(COC(=O)c1cccnc1Nc1cccc(C(F)(F)F)c1)NCc1ccc2c(c1)OCO2 | inconclusive: 20.6 µM [inhibitor, single point] | –
CCOc1ccc(NC(=O)CSc2oc(-c3ccc(C)cc3)nc2S(=O)(=O)c2ccc(C)cc2)cc1 | inconclusive: 2 µM [inhibitor, partial curve, poor fit] | –
O=C(CCn1c(=S)[nH]c2ccccc2c1=O)Nc1ccc(F)cc1 | inconclusive: 3.16 µM [inhibitor, partial curve, poor fit] | –
COc1ccc(-n2c(COc3ccc4ccccc4c3)nnc2SCC(=O)NCc2ccco2)cc1 | inconclusive: 20.6 µM [inhibitor, single point] | –
CSc1ccccc1NC(=O)CN(C)C(=O)COc1ncnc2ccccc12 | inactive | –
COC(=O)c1cc(C(=O)OC)n(Cc2ccc(C)cc2)c1C | inconclusive: 8.91 µM [inhibitor, partial curve, poor fit] | –
CN(C)C(=O)C1C2NC(=S)N(c3ccccc3)C1(C)Oc1ccccc12 (stereo unspecified) | – | inconclusive: 1.23% [activator]
COc1cccc(C(=O)N(Cc2ccc(C)o2)C2CCS(=O)(=O)C2)c1 (stereo unspecified) | inactive | –
Cc1cccc(CN2C(=O)N/C(=C/c3cc(C)n(-c4cc(C)ccn4)c3C)C2=O)c1 | active: 11.2 µM | –
COc1ccc(/C=C(/NC(=O)c2ccccc2)c2nc3ccc(Cl)cc3[nH]2)cc1OC | inconclusive: 18.4 µM [inhibitor, partial curve, poor fit] | –
CCc1ccccc1NC(=O)c1ccc(F)c(S(=O)(=O)N2CCN(c3cccc(Cl)c3)CC2)c1 | inactive | –
COc1ccc(S(=O)(=O)N2CC3CCCN3c3cc(C(F)(F)F)ccc32)cc1 (stereo unspecified) | inconclusive: 29.1 µM [inhibitor, single point] | –
Cc1ccc(S(=O)(=O)c2cc3cc(C(=O)Nc4ccc(C)cc4C)ccc3oc2=O)cc1 | inactive | –
CC(C)c1ccc(NC(=O)Cc2cn(C)c3ccccc23)cc1 | inconclusive: 5.62 µM [activator, full curve, poor fit] | –
CCN(CC)S(=O)(=O)c1ccc(-c2nnc(SCC(=O)N3CCc4ccccc43)o2)cc1 | inconclusive: 29.1 µM [inhibitor, single point] | –
COc1ccc(C(=O)N=c2sc3ccccc3n2C)cc1 | inconclusive: 15.8 µM [inhibitor, single point] | –
CC(=O)N1CCN(C(=O)c2ccc3c(c2)S(=O)(=O)c2ccccc2C3=O)CC1 | inactive | –
O=C(CSc1nnc(-c2cccnc2)n1Cc1ccco1)N1c2ccccc2Sc2ccccc21 | inconclusive: 29.1 µM [inhibitor, single point] | –
Cc1ccc(S(=O)(=O)N2CCOCC2)cc1NC(=O)C(c1ccc(Cl)cc1)C(C)C (stereo unspecified) | inconclusive: 11.2 µM [inhibitor, single point] | –

Structures shown so far containing a thiophene ring, fused or not (2):
SMILES | Potency | activity change, negative = inhibition
CCOC(=O)Nc1sc2c(c1C#N)CCCC2 | inactive | –
Cc1cccc(Oc2sc(C(=O)c3ccccc3)c(N)c2C#N)c1C | inconclusive: 1.26 µM [inhibitor, full curve] | –
